Reference: publication PMC7862700
Only a part is listed here, and it is no random draw. At the low end of the ranking the order means little.

By UniProt entry, the sequences of proteins in these tests, tags left out. Where a name states a change or a piece, a line headed by the entry shows the natural chain unless it says otherwise.
UniProt Q9Y603: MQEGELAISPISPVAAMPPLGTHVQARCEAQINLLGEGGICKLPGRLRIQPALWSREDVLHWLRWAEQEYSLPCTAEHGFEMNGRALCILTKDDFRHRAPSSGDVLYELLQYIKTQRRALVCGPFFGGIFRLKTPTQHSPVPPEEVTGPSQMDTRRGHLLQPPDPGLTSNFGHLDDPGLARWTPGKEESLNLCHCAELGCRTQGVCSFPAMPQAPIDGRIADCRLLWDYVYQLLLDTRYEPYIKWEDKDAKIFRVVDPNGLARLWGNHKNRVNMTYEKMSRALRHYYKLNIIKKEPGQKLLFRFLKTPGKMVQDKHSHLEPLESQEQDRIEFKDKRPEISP

target: ETV7 (UniProt Q9Y603); test: DAPPL (digital affinity profiling via proximity ligation, sequencing); conditions: 10 mM Tris-HCl pH 7.5, 50 mM NaCl, 1 mM DTT, 4% glycerol, room temperature, 30 min; GST-TFs on glutathione beads, 16-mer random dsDNA library, 0.1% …; high values mean tight binding; double strand, one strand shown; scale: fold enrichment (6-mer frequency, TF over GST control)

Row | Sequence | binding signal
1 | ATACAA | 1.14
2 | TCTTAC | 1.31
3 | TTTGCT | 1.38
4 | CGACCG | 1.13
5 | GTCTTT | 1.28
6 | CTGTTA | 1.12
7 | CGACTT | 1.53
8 | CTCACT | 1.56
9 | TTTATG | 1.32
10 | GAACTC | 1.29
11 | TGTCTC | 1.16
12 | AACCTT | 1.29
13 | TACGTT | 1.34
14 | GTTCCA | 1.12
15 | TGCTCT | 1.24
16 | CCCGCA | 1.31
17 | GATACG | 0.99
18 | AGGCTC | 1.04
19 | GCTCTG | 1.17
20 | TCGTTC | 1.15

Part of the list above, as labelled records:
TGTCTC
  binding signal: 1.16
AACCTT
  binding signal: 1.29

(next part)

Row | Sequence | binding signal
21 | CTTTTA | 1.42
22 | TTGCAC | 1.26
23 | CTACTC | 1.13
24 | GCTTTC | 1.31
25 | CCATGC | 1.1
26 | GCGTTC | 1.23
27 | ATCACT | 1.26
28 | ACTTTC | 1.51
29 | ATGCAA | 1.19
30 | CCTCTC | 1.44
31 | AACCTC | 1.26
32 | TCACGC | 1.16
33 | GCTCAG | 0.952
34 | CACACT | 1.14
35 | TTCCGT | 1.6
36 | GTAACA | 1.08
37 | CCTCGT | 1.17
38 | GTTCTA | 1.2
39 | TTTAAA | 1.36
